For 10 molecules, binding results are on record in paper doi:10.1101/2025.05.15.654347.

Sequences of proteins named here, by UniProt entry; tags and fusion partners are left off. Residues count along the entry.
UniProt Q60751, residues 31-1373: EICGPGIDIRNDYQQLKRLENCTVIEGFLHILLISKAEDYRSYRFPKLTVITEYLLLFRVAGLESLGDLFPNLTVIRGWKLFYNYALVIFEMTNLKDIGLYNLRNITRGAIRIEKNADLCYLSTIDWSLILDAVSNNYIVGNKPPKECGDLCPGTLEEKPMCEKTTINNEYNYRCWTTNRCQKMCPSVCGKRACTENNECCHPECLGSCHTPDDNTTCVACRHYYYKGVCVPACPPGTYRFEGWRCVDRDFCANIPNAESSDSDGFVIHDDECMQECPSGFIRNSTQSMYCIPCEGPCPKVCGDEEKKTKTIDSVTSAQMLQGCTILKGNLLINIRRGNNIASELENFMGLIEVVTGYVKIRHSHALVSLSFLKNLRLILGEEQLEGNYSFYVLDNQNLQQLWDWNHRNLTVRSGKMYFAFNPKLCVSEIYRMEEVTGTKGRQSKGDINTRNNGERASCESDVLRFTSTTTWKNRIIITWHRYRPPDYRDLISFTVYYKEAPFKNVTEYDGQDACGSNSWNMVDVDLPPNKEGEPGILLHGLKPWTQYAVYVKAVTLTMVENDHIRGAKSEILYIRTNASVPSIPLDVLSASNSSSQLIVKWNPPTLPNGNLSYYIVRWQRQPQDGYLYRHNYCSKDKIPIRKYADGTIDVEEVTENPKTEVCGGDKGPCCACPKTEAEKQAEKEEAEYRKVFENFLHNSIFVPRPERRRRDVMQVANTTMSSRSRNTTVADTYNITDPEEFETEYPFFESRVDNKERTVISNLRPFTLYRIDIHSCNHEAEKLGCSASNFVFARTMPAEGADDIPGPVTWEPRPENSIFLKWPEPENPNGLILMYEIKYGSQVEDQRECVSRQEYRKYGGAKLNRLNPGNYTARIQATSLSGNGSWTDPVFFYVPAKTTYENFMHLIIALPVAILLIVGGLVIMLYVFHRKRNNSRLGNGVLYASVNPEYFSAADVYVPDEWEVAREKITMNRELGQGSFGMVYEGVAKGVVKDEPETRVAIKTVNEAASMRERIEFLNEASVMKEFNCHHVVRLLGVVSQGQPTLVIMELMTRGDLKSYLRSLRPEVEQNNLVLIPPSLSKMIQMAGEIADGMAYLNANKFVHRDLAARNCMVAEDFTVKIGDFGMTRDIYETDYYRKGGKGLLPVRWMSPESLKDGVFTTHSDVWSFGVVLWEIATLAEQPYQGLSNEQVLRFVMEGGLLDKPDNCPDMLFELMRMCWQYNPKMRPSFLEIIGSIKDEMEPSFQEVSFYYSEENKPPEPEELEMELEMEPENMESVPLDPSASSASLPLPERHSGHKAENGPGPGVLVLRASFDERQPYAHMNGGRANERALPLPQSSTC
UniProt P15208, residues 28-1372: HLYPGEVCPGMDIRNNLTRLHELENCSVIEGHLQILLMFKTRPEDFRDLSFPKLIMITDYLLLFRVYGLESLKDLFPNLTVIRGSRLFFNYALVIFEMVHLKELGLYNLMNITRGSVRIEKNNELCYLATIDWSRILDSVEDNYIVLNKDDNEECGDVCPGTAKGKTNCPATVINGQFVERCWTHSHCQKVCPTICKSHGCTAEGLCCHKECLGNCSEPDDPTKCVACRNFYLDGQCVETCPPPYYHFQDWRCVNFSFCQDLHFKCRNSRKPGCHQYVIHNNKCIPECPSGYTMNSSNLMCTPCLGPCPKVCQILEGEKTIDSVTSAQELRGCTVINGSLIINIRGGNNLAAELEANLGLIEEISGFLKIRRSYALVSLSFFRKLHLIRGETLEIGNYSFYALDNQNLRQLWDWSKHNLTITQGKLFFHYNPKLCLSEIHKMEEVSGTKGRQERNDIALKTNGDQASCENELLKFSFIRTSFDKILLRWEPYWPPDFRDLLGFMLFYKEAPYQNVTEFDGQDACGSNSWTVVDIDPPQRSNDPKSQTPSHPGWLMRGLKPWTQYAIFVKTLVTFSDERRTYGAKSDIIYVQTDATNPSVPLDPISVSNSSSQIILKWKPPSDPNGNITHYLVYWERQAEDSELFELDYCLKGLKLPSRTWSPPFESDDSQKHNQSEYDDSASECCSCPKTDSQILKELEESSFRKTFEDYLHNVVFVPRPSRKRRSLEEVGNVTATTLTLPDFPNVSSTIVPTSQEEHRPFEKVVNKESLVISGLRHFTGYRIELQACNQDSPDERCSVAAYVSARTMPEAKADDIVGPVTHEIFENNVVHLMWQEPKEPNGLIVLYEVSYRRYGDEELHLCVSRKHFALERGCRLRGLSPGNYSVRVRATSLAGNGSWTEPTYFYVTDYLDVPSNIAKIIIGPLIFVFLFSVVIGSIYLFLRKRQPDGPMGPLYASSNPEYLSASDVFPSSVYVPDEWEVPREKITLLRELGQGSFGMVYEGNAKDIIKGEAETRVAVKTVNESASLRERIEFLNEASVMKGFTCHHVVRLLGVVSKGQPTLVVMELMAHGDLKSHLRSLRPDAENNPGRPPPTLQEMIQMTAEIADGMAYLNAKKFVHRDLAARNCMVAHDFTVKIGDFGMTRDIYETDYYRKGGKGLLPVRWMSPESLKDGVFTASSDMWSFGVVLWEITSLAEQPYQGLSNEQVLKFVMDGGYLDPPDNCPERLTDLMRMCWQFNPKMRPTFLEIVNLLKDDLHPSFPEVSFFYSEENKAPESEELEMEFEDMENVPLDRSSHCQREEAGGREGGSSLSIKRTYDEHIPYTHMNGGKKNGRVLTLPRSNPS

Common to all, as to assay: co-IP
Assay [1] has as its target T1, endogenous BTBD9-3xFLAG (BTBD9::FLAG myoblasts) (mouse (endogenous in C2C12)) (UniProt Q8C726).
T1 sequence: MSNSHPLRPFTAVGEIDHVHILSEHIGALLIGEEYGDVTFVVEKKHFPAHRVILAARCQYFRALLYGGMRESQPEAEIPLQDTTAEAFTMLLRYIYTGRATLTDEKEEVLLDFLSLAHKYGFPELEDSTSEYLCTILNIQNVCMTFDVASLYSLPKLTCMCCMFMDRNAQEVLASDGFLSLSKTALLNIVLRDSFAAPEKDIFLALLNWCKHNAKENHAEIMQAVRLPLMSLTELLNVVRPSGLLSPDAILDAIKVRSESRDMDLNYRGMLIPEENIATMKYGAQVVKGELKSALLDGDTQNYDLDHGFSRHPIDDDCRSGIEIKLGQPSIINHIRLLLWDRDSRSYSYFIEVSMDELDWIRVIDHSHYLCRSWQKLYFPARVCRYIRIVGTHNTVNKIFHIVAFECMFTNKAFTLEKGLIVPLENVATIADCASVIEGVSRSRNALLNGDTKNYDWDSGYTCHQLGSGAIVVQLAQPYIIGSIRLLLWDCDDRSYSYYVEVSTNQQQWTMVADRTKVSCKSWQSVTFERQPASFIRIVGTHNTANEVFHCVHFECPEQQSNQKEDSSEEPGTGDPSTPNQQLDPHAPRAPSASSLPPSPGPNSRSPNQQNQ

Assay [2] deals with T2, ^FLAGBTBD9 (wildtype), for small-scale immunoprecipitation (not stated (human or mouse cDNA cloned)) (UniProt Q96Q07).
T2 sequence: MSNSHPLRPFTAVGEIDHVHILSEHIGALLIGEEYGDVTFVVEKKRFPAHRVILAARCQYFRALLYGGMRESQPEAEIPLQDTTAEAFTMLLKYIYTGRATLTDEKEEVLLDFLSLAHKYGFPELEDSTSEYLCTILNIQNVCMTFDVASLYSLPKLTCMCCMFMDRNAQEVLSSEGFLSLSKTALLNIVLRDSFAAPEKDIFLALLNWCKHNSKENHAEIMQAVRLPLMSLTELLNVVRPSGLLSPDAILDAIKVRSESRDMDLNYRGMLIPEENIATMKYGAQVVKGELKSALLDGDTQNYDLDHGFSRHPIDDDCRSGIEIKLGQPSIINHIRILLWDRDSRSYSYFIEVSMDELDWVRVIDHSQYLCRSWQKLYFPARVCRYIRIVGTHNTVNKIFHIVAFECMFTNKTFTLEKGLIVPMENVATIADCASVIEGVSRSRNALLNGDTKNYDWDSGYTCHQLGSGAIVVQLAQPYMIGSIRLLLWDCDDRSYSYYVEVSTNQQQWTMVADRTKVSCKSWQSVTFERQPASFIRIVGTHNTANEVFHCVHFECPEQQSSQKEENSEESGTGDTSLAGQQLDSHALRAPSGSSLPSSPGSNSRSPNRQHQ

The target of assay [3] is T1, endogenous BTBD9-3xFLAG (BTBD9::FLAG myoblasts) (mouse (endogenous in C2C12)). This is another data set of the same source.
The target in assay [4] is T2, ^FLAGBTBD9 (wildtype), for small-scale immunoprecipitation (not stated (human or mouse cDNA cloned)). The source holds these as a separate data set.
Assay [5] addresses T3, ^FLAGBTBD9^ΔCUL3 (M69A/R70A/E71A), for small-scale immunoprecipitation (not stated (human or mouse cDNA cloned)) (UniProt Q96Q07).
T3 sequence: T2 sequence with M69A, R70A, E71A

Residue numbers refer to the chain shown, from its start. Where two headings read alike, the source gives them in different places. Results are given in words; binding and its absence hold for the method and conditions named. Binding seen in cells or lysates may run through a third protein. Some entries that bind do so weakly or less than the wild type. Where a sequence is shown, tags or fusion partners need not be part of it.

As to “IGF1 receptor (from UniProt Q60751 31-1373)”, the binding entry in assay [1] is listed as “binds”.
As to ^HACAV1 (from UniProt Q03135 1-178), in assay [2], the binding entry was “binds”.
Consider “insulin receptor (from UniProt P15208 28-1372)”, for which the binding result in assay [1] is reported as “binds”.

B1: active PDK1, the kinase responsible for AKT activation (enzyme, UniProt Q9Z2A0 1-559)
chain: MARTTSQLYDAVPIQSSVVLCSCPSPSMVRSQTEPGSSPGIPSGVSRQGSTMDGTTAEARPSTNPLQQHPAQLPPQPRKKRPEDFKFGKILGEGSFSTVVLARELATSREYAIKILEKRHIIKENKVPYVTRERDVMSRLDHPFFVKLYFTFQDDEKLYFGLSYAKNGELLKYIRKIGSFDETCTRFYTAEIVSALEYLHGKGIIHRDLKPENILLNEDMHIQITDFGTAKVLSPESKQARANSFVGTAQYVSPELLTEKSACKSSDLWALGCIIYQLVAGLPPFRAGNEYLIFQKIIKLEYHFPEKFFPKARDLVEKLLVLDATKRLGCEEMEGYGPLKAHPFFETITWENLHQQTPPKLTAYLPAMSEDDEDCYGNYDNLLSQFGFMQVSSSSSSHSLSTVETSLPQRSGSNIEQYIHDLDTNSFELDLQFSEDEKRLLLEKQAGGNPWHQFVENNLILKMGPVDKRKGLFARRRQLLLTEGPHLYYVDPVNKVLKGEIPWSQELRPEAKNFKTFFVHTPNRTYYLMDPSGNAHKWCRKIQEVWRQQYQSNPDAAVQ
modifications: 'active' as printed; the modification that was detected is not stated
With B1, the binding result in assay [3] is given as “binds”.

B2: endogenous CAV1 of C2C12 myoblasts (protein, UniProt P49817 1-178)
chain: MSGGKYVDSEGHLYTVPIREQGNIYKPNNKAMADEVTEKQVYDAHTKEIDLVNRDPKHLNDDVVKIDFEDVIAEPEGTHSFDGIWKASFTTFTVTKYWFYRLLSTIFGIPMALIWGIYFAILSFLHIWAVVPCIKSFLIEIQCISRVYSIYVHTFCDPLFEAIGKIFSNIRISTQKEI
With B2, the binding entry in assay [4], in assay [3] and in assay [5] was “binds” throughout.

B3: modified version of CAV1, with a molecular weight expected for monoubiquitylated CAV1 (protein, UniProt P49817 1-178)
chain: B2 chain
modifications: modified consistent with monoubiquitylation; site not stated
With B3, the binding entry in assay [4] is given as “binds”.

B4: endogenous KCTD10 of C2C12 myoblasts (protein, UniProt Q922M3 1-315)
chain: MEEMSGDSVVSSAVPAAATRTTSFKGASPSSKYVKLNVGGALYYTTMQTLTKQDTMLKAMFSGRMEVLTDSEGWILIDRCGKHFGTILNYLRDGGVPLPESRREIEELLAEAKYYLVQGLLEECQAALQNKDTYEPFCKVPVITSSKEEQRLIATSNKPAVKLLYNRSNNKYSYTSNSDDNMLKNIELFDKLSLRFNGRVLFIKDVIGDEICCWSFYGQGRKIAEVCCTSIVYATEKKQTKVEFPEARIYEETLNILLYEAQDGRGPDNALLEATGGAAGRSHHLDEDEERERERIERVRRIHIKRPDDRAHLHQ
Consider B4, for which the binding result in assay [3] is on record as “binds”.

B5: HA-tagged TNFAIP1 (protein, UniProt Q13829 1-316)
chain: MSGDTCLCPASGAKPKLSGFKGGGLGNKYVQLNVGGSLYYTTVRALTRHDTMLKAMFSGRMEVLTDKEGWILIDRCGKHFGTILNYLRDDTITLPQNRQEIKELMAEAKYYLIQGLVNMCQSALQDKKDSYQPVCNIPIITSLKEEERLIESSTKPVVKLLYNRSNNKYSYTSNSDDHLLKNIELFDKLSLRFNGRVLFIKDVIGDEICCWSFYGQGRKLAEVCCTSIVYATEKKQTKVEFPEARIYEETLNVLLYETPRVPDNSLLEATSRSRSQASPSEDEETFELRDRVRRIHVKRYSTYDDRQLGHQSTHRD
For B5, in assay [4], the binding result was “binds”.

B6: ^HAKCTD10 (protein, UniProt Q9H3F6 1-313)
chain: MEEMSGESVVSSAVPAAATRTTSFKGTSPSSKYVKLNVGGALYYTTMQTLTKQDTMLKAMFSGRMEVLTDSEGWILIDRCGKHFGTILNYLRDGAVPLPESRREIEELLAEAKYYLVQGLVEECQAALQNKDTYEPFCKVPVITSSKEEQKLIATSNKPAVKLLYNRSNNKYSYTSNSDDNMLKNIELFDKLSLRFNGRVLFIKDVIGDEICCWSFYGQGRKIAEVCCTSIVYATEKKQTKVEFPEARIYEETLNILLYEAQDGRGPDNALLEATGGAAGRSHHLDEDEERERIERVRRIHIKRPDDRAHLHQ
Regarding B6, the binding result in assay [4] is listed as “binds”.

B7: KCTD10 co-precipitating with FLAG-tagged BTBD9 variants (Figure 3A) (protein, UniProt Q9H3F6 1-313)
chain: B6 chain
Turning to B7, the binding result in assay [4] was “binds”.
